Laboratory results from publication PMC7293033.
These are yes or no findings as the source states them, for the method shown.

The chains behind the UniProt entries cited, without tags or fusion partners.
UniProt Q13838: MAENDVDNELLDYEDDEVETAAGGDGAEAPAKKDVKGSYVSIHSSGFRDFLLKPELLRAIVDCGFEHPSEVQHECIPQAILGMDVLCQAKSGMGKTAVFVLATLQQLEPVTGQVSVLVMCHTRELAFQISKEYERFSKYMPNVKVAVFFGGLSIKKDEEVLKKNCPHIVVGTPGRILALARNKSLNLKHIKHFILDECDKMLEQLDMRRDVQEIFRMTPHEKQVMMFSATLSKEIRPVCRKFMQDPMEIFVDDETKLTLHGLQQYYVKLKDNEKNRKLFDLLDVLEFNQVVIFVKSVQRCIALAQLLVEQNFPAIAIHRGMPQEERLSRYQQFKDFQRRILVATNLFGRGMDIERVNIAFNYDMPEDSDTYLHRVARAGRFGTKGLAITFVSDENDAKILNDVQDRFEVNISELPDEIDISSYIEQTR

Target: GST-UAP56 (human) (UniProt Q13838)
Assay: SPR; UAP56 with API5, FGF2, the API5–FGF2 complex or PBK as analyte proteins; purified recombinant proteins; both purified

B1: PBK (PDZ-binding kinase) (protein, UniProt Q96KB5 1-322)
chain: MEGISNFKTPSKLSEKKKSVLCSTPTINIPASPFMQKLGFGTGVNVYLMKRSPRGLSHSPWAVKKINPICNDHYRSVYQKRLMDEAKILKSLHHPNIVGYRAFTEANDGSLCLAMEYGGEKSLNDLIEERYKASQDPFPAAIILKVALNMARGLKYLHQEKKLLHGDIKSSNVVIKGDFETIKICDVGVSLPLDENMTVTDPEACYIGTEPWKPKEAVEENGVITDKADIFAFGLTLWEMMTLSIPHINLSNDDDDEDKTFDESDFDDEAYYAALGTRPPINMEELDESYQKVIELFSVCTNEDPKDRPSAAHIVEALETDV
- binding: no binding
